Measurements as given in patent US20230250438.

Target: Transferrin receptor (TfR) (Homo sapiens) (UniProt P02786)
Test: pull-down
Settings: SB18, 5 mM MgCl2, 37 C, protein details: captured on Dynabeads TALON (His tag implied), single-stranded DNA, letters built from the parent sequence and the stated change

## AAGTGTCGGTGATTTGCCTCGTCGCT [TfR-01-01-26]
B = Bn-dU [B=Bn-dU (T) at 4,6,10,13,14,15,19,22,26], purified recombinant protein, variant of TfR-01-01-41
  binding result: binds

## AGTGTCGGTGATTTGCCTCGTCGCTCCAATGT [TfR-01-01-32]
B = Bn-dU [B=Bn-dU (T) at 3,5,9,12,13,14,18,21,25,30,32], purified recombinant protein, variant of TfR-01-01-41
  binding result: binds

## GAATTCAAAAGTGTCGGTGATTTGCCTCGTCGCT [TfR-01-01-34]
B = Bn-dU [B=Bn-dU (T) at 4,5,12,14,18,21,22,23,27,30,34], purified recombinant protein, variant of TfR-01-01-41
  binding result: binds

## GAATTCAAAAGTGTCGGTGATTTGCCTCGTCGCTCCAATGT [TfR-01-01-41]
B = 5-(N-benzylcarboxyamide)-2'-deoxyuridine (Bn-dU) [B=Bn-dU (T) at 4,5,12,14,18,21,22,23,27,30,34,39,41], purified recombinant …
  binding result: binds
